Test results published in the supplement of paper PMC10689618.
Where a name gives a salt, the structure may show the parent alone. The list shows a part of the results. Many values rest on one well or one pass, so single values are uncertain.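 Primary human fetal astrocytes engulfed labelled rat cortical synaptosomes, measured as a red/green ratio corrected for calcein live-cell signal and scaled to the plate median. Toxicity meant calcein falling over 30%; decreased phagocytosis meant below 70% of median above 5 µM.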

system: Human fetal astrocytes; experiment: synaptosome phagocytosis (pHrodo/calcein intensity ratio) relative to plate median of data wells; higher = more phagocytosis; conditions: 1.39 µM; 24 h

Structure (SMILES) | synaptosome phagocytosis
COc1cc(O)cc(OC)c1OC | 96.9%
Nc1ccc(C(=O)O)c(O)c1 | 96.7%
Cc1cc(-c2ccccc2)nnc1NCCN1CCOCC1 | 91.9%
C=C1c2c(Cl)ccc(O)c2C(O)=C2C(=O)[C@]3(O)C(O)=C(C(N)=O)C(=O)[C@@H](N(C)C)[C@@H]3[C@@H](O)[C@H]12.O=C(O)c1cc(S(=O)(=O)O)ccc1O | 120%
CCCCCCCCCc1ccc(OCCOCCOCCOCCOCCOCCOCCOCCOCCO)cc1 | 133%
O=C1CCc2ccc(OCCCCN3CCN(c4cccc(Cl)c4Cl)CC3)cc2N1 | 54.8%
NC(=O)c1cc[n+](CC2=C(C(=O)O)N3C(=O)[C@@H](NC(=O)[C@@H](c4ccccc4)S(=O)(=O)[O-])[C@H]3SC2)cc1 | 71.2%
CC(C)=CC1C(C(=O)O)C1(C)C (centres undefined) | 124%
CCC(C)C(=O)OC1[C@@H]2CC3=C4CC(=O)O[C@@H](c5ccoc5)[C@]4(C)CCC3[C@@](C)(C2=O)[C@@H](CC(=O)OC)C1(C)C (some centres undefined) | 82.7%
C/C=C1\[C@H]2C=C(C)C[C@]1(N)c1ccc(=O)[nH]c1C2 | 127%
Nc1cc(C(Cl)=C(Cl)Cl)c(S(N)(=O)=O)cc1S(N)(=O)=O | 106%
CC(C)(C(=O)O)c1ccc(C(O)CCCN2CCC(C(O)(c3ccccc3)c3ccccc3)CC2)cc1 (centres undefined) [Fexofenadine hydrochloride] | 176%
CO[C@@]1(NC(=O)C(C(=O)O)c2ccc(O)cc2)C(=O)N2C(C(=O)O)=C(CSc3nnnn3C)CO[C@@H]21 (some centres undefined) | 110%
Cc1ncc(CO)c(CO)c1O | 121%
CCOc1ccc(NC(C)=O)cc1 | 102%
COc1cc(C(=O)N2CCOCC2)cc(OC)c1OC | 157%
CO[C@H]1C[C@H](O[C@H]2[C@H](C)[C@@H](O[C@@H]3O[C@H](C)C[C@H](N(C)C)[C@H]3O)[C@@H](C)C[C@@]3(CO3)C(=O)[C@H](C)[C@@H](O)[C@@H](C)[C@@H](C)OC(=O)[C@@H]2C)O[C@@H](C)[C@@H]1O | 100%
COC(=O)[C@H]1[C@H]2C[C@H]3c4[nH]c5cc(OC)ccc5c4CCN3C[C@H]2C[C@@H](OC(=O)c2cc(OC)c(OC)c(OC)c2)[C@@H]1OC | 145%
CCOc1ccc(C(=O)c2ccc(OC)c(O)c2O)cc1 | 92%
Cc1ncc(C[n+]2csc(CCO)c2C)c(N)n1 | 107%

Structure (SMILES) | synaptosome phagocytosis
CCC(=O)OCC(=O)[C@@]1(OC(=O)CC)[C@@H](C)C[C@H]2[C@@H]3CCC4=CC(=O)C=C[C@]4(C)[C@@]3(F)[C@@H](O)C[C@@]21C | 84.1%
O=C1C(CC[S+]([O-])c2ccccc2)C(=O)N(c2ccccc2)N1c1ccccc1 (centres undefined) | 110%
CCCN(CCC)S(=O)(=O)c1ccc(C(=O)O)cc1 | 110%
CC1(C)S[C@@H]2[C@H](N3C(=O)[C@@H](c4ccccc4)NC3(C)C)C(=O)N2[C@H]1C(=O)O | 87.6%
COc1c(O)cc(O)cc1O | 94%
Cc1c(N(C)C)c(=O)n(-c2ccccc2)n1C | 110%
C[N+](C)(C)CCOP(=O)(O)OP(=O)([O-])OC[C@H]1O[C@@H](n2ccc(N)nc2=O)[C@H](O)[C@@H]1O | 93.4%
COC(=O)C[C@H]1C(C)(C)[C@@H](OC(C)=O)[C@@H]2CC3C4CC(=O)O[C@@H](c5ccoc5)[C@]4(C)CCC3[C@@]1(C)C2=O (some centres undefined) | 106%
CCOc1ccc2ccccc2c1C(=O)N[C@@H]1C(=O)N2[C@@H]1SC(C)(C)[C@@H]2C(=O)O | 109%
CN1C(=O)OC(C)(C)C1=O | 132%
Cn1c([N+](=O)[O-])cnc1COC(N)=O | 117%
OC(CCN1CCCCC1)(c1ccccc1)C1CC2C=CC1C2 (centres undefined) | 89.9%
COc1c(-c2coc3cc4c(cc3c2=O)CC(O)C(C)(C)O4)ccc2c1C=CC(C)(C)O2 (centres undefined) | 81.3%
NCCOB(c1ccccc1)c1ccccc1 | 125%
CC1=CCCC(C)=CCC(C)(C)C=CC1 [HUMULENE (alpha)] | 96.9%
C=CC(C1=CC(=O)C(OC)=CC1=O)c1ccc(O)cc1 (centres undefined) | 181%
CCC[C@@H]1C[C@@H](C(=O)N[C@@H]([C@H]2O[C@H](SC)[C@H](O)[C@@H](O)[C@H]2O)[C@@H](C)O)N(C)C1 | 88.2%
CCOC(=O)c1c(C)cc(O)cc1O | 79.5%
Nc1ccccc1C(=O)CC(N)C(=O)O (centres undefined) | 89.9%

Some values from above.
In synaptosome phagocytosis, OC(CCN1CCCCC1)(c1ccccc1)C1CC2C=CC1C2 (centres undefined) has the entry 89.9%
In synaptosome phagocytosis, Nc1ccc(C(=O)O)c(O)c1 has the entry 96.7%
In synaptosome phagocytosis, C/C=C1\[C@H]2C=C(C)C[C@]1(N)c1ccc(=O)[nH]c1C2 has the entry 127%
